This is an account of results in article PMC7747709.

Chains of the proteins cited; added tags and fusions are not shown. A line that says so, or that is headed by a name, gives the form on record, which may keep a tag or linker.
chCD40ED (chicken CD40 extra domain) (Gallus gallus), one chain, as listed by the source: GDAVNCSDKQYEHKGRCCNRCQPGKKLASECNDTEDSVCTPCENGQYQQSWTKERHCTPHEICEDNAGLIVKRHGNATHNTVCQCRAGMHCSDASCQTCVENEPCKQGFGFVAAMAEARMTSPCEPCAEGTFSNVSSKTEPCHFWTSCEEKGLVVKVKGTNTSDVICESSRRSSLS

Series [1] has as its system chCD40ED (chicken CD40 extra domain) (Gallus gallus). The experiment in a line: dot blot. Particulars: binding at 25 uM or higher, Dot blot: protein 15 ug/mL on PVDF, aptamer 12-50 uM, KPL blocking/wash buffers (IPBST negative control), proteolysis: 25 mM NH4HCO3 pH ~7.5, 37 C, 1 h, recombinant protein, single-stranded DNA.
Series [2] shares this test system. Kind of series: limited trypsin proteolysis protection, LC-ESI-MS. The note with it: 25 mM NH4HCO3 pH ~7.5, 37 C; Dot blot: protein 15 ug/mL on PVDF, aptamer 12-50 uM, KPL blocking/wash buffers (IPBST negative control); proteolysis: 25 mM NH4HCO3 pH ~7.5, 37 C, 1 h; recombinant protein; label: 5' biotin (dot blot); single-stranded DNA.

Construct, isoform or probe ends are uncertain for at least one entry.

On to “CCGAATTCGAAGGACAAGAGAGAAAAAACGAATCCCAGGACAGACCGGCGTGTCGAGTCCTCTTTTATGCTACGTCCCGC [SEQ2]”, for which, in series [1] (label: 5' biotin), the binding result was “binds”. Consider “CCGAATTCGAAGGACAAGAGAGATGAGGGATGCTGTCAAGTCAGTATGGTTGGTCATCTCTCTTTTATGCTACGTCCCGC [SEQ7]”, for which the binding result in series [1] (label: 5' biotin) is reported as “binds”. Take “CCGAATTCGAAGGACAAGAGCAACATTTCTTTTACCCCTATCCTTTGCAACTACCCCCATTCTTTTATGCTACGTCCCGC [SEQ8]”: the binding result in series [1] (label: 5' biotin) is given as “binds”. As for “CCGAATTCGAAGGACAAGAGCAGACAAACGAGTATTAGGACAGAACGGTAGCACGACTCATCTTTTATGCTACGTCCCGC [SEQ1]”, the binding result in series [1] (label: 5' biotin) is listed as “binds”. The same measure, in the same setting: for “CCGAATTCGAAGGACAAGAGGTAAGTCACGACGTCCTAGGATGACCAGTTCCGATTGTTCTCTTTTATGCTACGTCCCGC [SEQ6]” the value was “binds”. With “CCGAATTCGAAGGACAAGAGGTGGAATTGGTAATGGGGTGTAAATGGAGCAGTGAATTCGTCTTTTATGCTACGTCCCGC [SEQ3]”, the binding result in series [2] and in series [1] (label: 5' biotin (dot blot)) was “binds” each time.

For the sequence “CCGAATTCGAAGGACAAGAGTAAGTGCAGTTTGGGTTTTCTTTTATGCTACGTCCCGCTCTTTTATGCTACGTCCCGC [SEQ5]”, the binding result in series [1] (label: 5' biotin) is recorded as “binds”.

With “CCGAATTCGAAGGACAAGAGTAGGGCTACATGGAATAGGGATCAGAAGAGCAGGGCTAGGTCTTTTATGCTACGTCCCGC [SEQ4]”, the binding result in series [2] and in series [1] (label: 5' biotin (dot blot)) was “binds” each time.
